Measured values as given in paper PMC10253099.
These are yes or no findings as the source states them, for the method shown. In cells and extracts the contact can be indirect. Binding can be weak; no strength is given. Where a sequence is shown, tags or fusion partners need not be part of it.

Columns and labels:
[1] = target: OZ1-cYFP (Arabidopsis thaliana); assay: split reporter; BiFC: nYFP (pSPYNE173) and cYFP (pSPYCE(M)) fusions co-transformed into Arabidopsis Col-0 mesophyll protoplasts, 16-20 h at 22 °C, confocal microscopy
[2] = target: OZ1-NLuc (Arabidopsis thaliana); assay: split reporter; firefly luciferase complementation imaging (LCI): NLuc and CLuc fusions co-expressed in tobacco leaves by Agrobacterium infiltration with P19, 60 h, 1 mM D-luciferin

B1: ATPC1-nYFP (ATPC1 fused to the N-terminal fragment of YFP) (protein, UniProt Q01908 51-373)
chain: ASLRELRDRIDSVKNTQKITEAMKLVAAAKVRRAQEAVVNGRPFSETLVEVLYNINEQLQTDDVDVPLTKVRPVKKVALVVVTGDRGLCGGFNNFIIKKAEARIKELKGLGLEYTVISVGKKGNSYFLRRPYIPVDKYLEAGTLPTAKEAQAVADDVFSLFISEEVDKVELLYTKFVSLVKSEPVIHTLLPLSPKGEICDINGTCVDAAEDEFFRLTTKEGKLTVERETFRTPTADFSPILQFEQDPVQILDALLPLYLNSQILRALQESLASELAARMSAMSSASDNASDLKKSLSMVYNRKRQAKITGEILEIVAGANAQV
binding [1]: binds

B2: ATPC1-CLuc (ATPC1, C-terminal luciferase fragment fusion) (protein, UniProt Q01908 51-373)
chain: B1 chain
binding [2]: binds
